PubChem BioAssay AID1347423 (Functional Genomics Laboratory (NCATS/FGL), 2020)
About 210 (0.4%) of roughly 52,000 sequences were called active.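 Rule for the calls: active = gene whose silencing raises cell survival under the drug, median off-target-corrected z-score across its silencing RNAs 2 or more; inactive = the rest.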 The list shows a part of the results.

Test: Resistance to Poly (ADP-Ribose) Polymerase inhibitor: Gene Identification via Genome-wide siRNA Screen
Details: mouse BRCA2 R2336H ES cells, olaparib, CellTiter-Glo viability; stronger effect = higher value
Method in brief: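 Genome-wide siRNA screen (3 siRNAs/gene, 20 nM) in mouse ES cells carrying hypomorphic BRCA2 R2336H; olaparib 500 nM added 48 h post-transfection, CellTiter-Glo viability 72 h later. Normalized to plate-median negative control; MAD z-scores, gene median, seed-adjusted.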

Sequence | z-score
GGUGAACUUGAAGAAGCCUTT against Ero1l | inactive: 0.395
GGAAUCUUUGAGCUGGUGGTT against Map4k6 | inactive: 0.243
GGUGAGUAUAUUCAAGUUATT against Ndor1 | inactive: 1.07
AAAAGCUUCACCUAACUAUTT against Ascc1 | inactive: 0.832
GGCCUCUUUUCUGCUGCUUTT against Krt1-12 | inactive: -1.27
CCUCAGCUCCGUAGAUCUUTT against B130017I01Rik | inactive: -0.1
GGAGUUUCACCAGAAGGCUTT against A430025D11Rik | inactive: -1.04
GGACAUAUUGGAUGGUGAUTT against Usp2 | inactive: 3.06
GGAAGGAUAUGAGAAUUUCTT against Nt5c3 | inactive: 1.32
CCGACUUGGAUAUUGCAUATT against 1810045K07Rik | inactive: 0.12
GGAAGAAAGGAGAAAACCATT against Rars | inactive: -2.88
GGAGGUGGUCCAGAAUUUUTT against Cotl1 | inactive: -0.412
GGAGUGCGGACGAUAAUACTT against Ppp1r3f | inactive: 0.357
GCCUUCCAACGAAGUUAAUTT against Epha3 | inactive: -1.64
GCUAAGUAAGGUGGUAUAUTT against Dgka | inactive: -1.03
GCCUGUUCCAGAAUUGCUATT against Bcl7c | inactive: -0.142
GGUCCAGCUCAUGAAACUUTT against Snf1lk | inactive: -1.38
GGUGGAGAUAAAAAGAGAGTT against Hnrpu | inactive: -0.753
GGAACAAAGAUGUCAAGUCTT against Olfr521 | inactive: 0.379
GGCUAAUUGCUACGUUCCCTT against 2010011I20Rik | inactive: 0.281
CGGUUCCAUUCUACAUUUUTT against Scpep1 | inactive: -0.174
GGUUCACAUGUACAUUAAATT against C530008M17Rik | inactive: -0.14
GCGAUGAUGUACAAAAGGGTT against Jph3 | inactive: 0.77
GCGACAUCUCUCAAGCUUATT against BC036313 | inactive: 2
GCUGACGAAAUCAAGAACCTT against Sox9 | inactive: 0.149
GGGUUUUUGUGGGUCUAGGTT against Lta | inactive: 0.932
GGAAAGAAGAAAUGAGAAGTT against 0610005I04 | inactive: 0.759

In a second layout: results already given
Sequence	z-score
GGCCUCUUUUCUGCUGCUUTT against Krt1-12	inactive: -1.27
CCUCAGCUCCGUAGAUCUUTT against B130017I01Rik	inactive: -0.1

Continuation.

Sequence | z-score
GGACGUGGGCUCUCUAGAUTT against S100a13 | inactive: -1.32
CCAUCUAUACCCUGGACGATT against Galr2 | inactive: -0.859
GUCUCUUUGCCCUGUGCUATT against V1rb10 | inactive: -0.332
GCUGGAUGCGACAAUCUGATT against Aqp11 | inactive: 0.903
GCAUAAACUUUAGGCAUGGTT against 4833435D08Rik | inactive: -0.435
CGCGUAUAGAACAUUAAUCTT against Cdc14b | inactive: 1.05
GGAACACACCUGUUAUGAUTT against Prkag3 | inactive: 2.68
CCUACUAACAACAAGAGCATT against Pcdhga5 | inactive: -0.521
GGAGCAUUUGUUUCCAAGATT against Cd38 | inactive: -0.384
GGCAUUAACCAUGAGUGUATT against Zfp423 | inactive: -2.26
GGUCCAGCAUUUGAAAUUATT against Moap1 | inactive: 0.674
CGCUUGCUCGGAUUGACAATT against Rya3 | inactive: -0.918
GCAAGAGCAUGCUUACGGUTT against Ccl1 | inactive: 1.15
GGCGUAUGUUCGCUUGGCUTT against Rpl23a | inactive: -3.18
CCCAAAAACGUGACAUCUUTT against Inppl1 | inactive: 0.657
GGACGGUCUUGCCUUCUUCTT against MGC67174 | inactive: 0.791
GGUUCUUUGUAUUGAUCAATT against Adamts20 | inactive: -0.117
CCUGCCAAUCUGUCUAAGUTT against Ccdc5 | inactive: 0.0628
GCCAAUUGAAGGAUAUCUUTT against Ocm | inactive: -1.05
GGAAGAAAGUGAAACUUGATT against 1700025B16Rik | inactive: -1.31
GCAAAUGGUGCAUACGUGATT against Slc35d1 | inactive: 0.00511
CCUACCUCUUGUUGGAAAATT against Fbxo15 | inactive: -1.09
CGAAAGAGAGAGUGGGUGATT against Cdh3 | inactive: 0.501
GCUCAGCAUGCUGAUUCCATT against LOC574428 | inactive: -1.43
GGCAAGCAUAAAGAUGAAUTT against Sema6d | inactive: -0.519
GCUGAAUGCCAUAAACAGATT against Srms | inactive: 1.41
GCUCGUCAGAGACAAGCAUTT against Ptcd2 | inactive: 0.227

Six entries from above, as tab-separated lines:
Sequence	z-score
CGCGUAUAGAACAUUAAUCTT against Cdc14b	inactive: 1.05
GGAACACACCUGUUAUGAUTT against Prkag3	inactive: 2.68
CCUACUAACAACAAGAGCATT against Pcdhga5	inactive: -0.521
GGAGCAUUUGUUUCCAAGATT against Cd38	inactive: -0.384
GGCAUUAACCAUGAGUGUATT against Zfp423	inactive: -2.26
GGUCCAGCAUUUGAAAUUATT against Moap1	inactive: 0.674

Next records.

Sequence | z-score
GGGUCUUGAAUACAGAGAGTT against Qscn6 | inactive: -0.209
GGAAGAAUUCUUGAAGAUGTT against Cetn4 | inactive: 0.722
GCCCAAGGAUUGGCAAAAGTT against Foxj1 | inactive: -0.773
GCCAUGAUACCUUGUUAUUTT against 4833424O15Rik | inactive: 0.279
GGUGACCACUUUUAUCUGATT against Thedc1 | inactive: 0.599
GCAGUUGGUAUUGUUAACUTT against Maml1 | inactive: 0.136
CCAUUGUUUGUAAUCUAGATT against Rbed1 | inactive: -0.358
GGUGUGGAGUAUGUAUGCUTT against Aplp1 | inactive: 0.665
GGAAUUUUAUGCCAAGAAUTT against Hip1r | inactive: 1.09
GGUGUUUACUCCGUACCCATT against Tbrg4 | inactive: -0.931
GGAUCAAUAAGGAAUCUCUTT against Ugp2 | inactive: 0.282
GGAGAAAGCUACUUAUAAGTT against Fbxo17 | inactive: 0.11
GGUUUUGAGCAAAAUUCUATT against Nrd1 | inactive: -0.299
GGGCAAAAACUGUCUGACUTT against Rps3a | inactive: -3.46
CGACACACCAGAACGAAUCTT against Cklfsf8 | inactive: -0.275
CCGUUGGAUAAUGUCACAUTT against Stx4a | inactive: 2.05
GGAUGAAGACCCAUAUGUGTT against Ap1b1 | inactive: -1.07
GCUAAAGUUCCAAUAUGGGTT against D5Wsu46e | inactive: -0.828
CCAUCAUGAACACCAAGCUTT against Olfr464 | inactive: -1.01
GGUGAGGAGGUACCAGGUATT against Nthl1 | inactive: 0.449
CGUCAUUGGCCUUCAAAUGTT against Tagln | inactive: -1.41
GCUUUUGUUACAUAAUGCUTT against Als2cr4 | inactive: 0.484
GGCCUAUGAAGUACUAUCUTT against Dnajb10 | inactive: -0.701
CCCUCCAGUAAAUUUUAAGTT against Sox6 | inactive: 1.09
GGAGUUGUAGUGAGGGUCATT against A430096B05Rik | inactive: 0.327
GCUUAUUGUCAUGAUCAUATT against Hsd17b7 | inactive: -1.41
GGCGUGUUUUAUGUAUAACTT against Acsl3 | inactive: 0.743

Sequence | z-score
GGGUUGUUCGGAGGAAACATT against Napb | inactive: -0.337
GCUGACUUCAGUUGUGGCATT against Baz2a | inactive: 0.0438
GGGAAAAACUCUGUGUGUATT against Coasy | inactive: -1.1
GGGACUGUUUCUGUUAAUUTT against D9Ertd280e | inactive: -1.01
CCUUCAAAUGAACUCUACUTT against Fcer1a | inactive: -1.58
CCUUUCAAUGACUACGAUUTT against Rnase9 | inactive: 0.0488
GCUGACCUCAAUGACUACATT against Ccl9 | inactive: -1.11
GCAUCAUACUGACCUGAGATT against Hemt1 | inactive: -1.09
GGCUGACAGUGGAGUCUAUTT against Ceacam9 | inactive: -3.14
GGUUCAAGCAGGUCAAAGUTT against Acbd6 | inactive: -0.134
GCCGGAGUGCACAAUCAAATT against Rarres2 | inactive: 0.384
GGAGAAUCUGGUCUGGGUATT against 4-Sep | inactive: -1.34
GGAACGACUACAAUGAACCTT against Ppil5 | inactive: 0.255
GGACAUGUCUCAGGAAAACTT against Btc | inactive: -2.13
GCUACUAGAGGAGAUGGACTT against Sart1 | inactive: -2.47
GGUGCUAAAUAAGACAAUGTT against Psma4 | inactive: -3.28
GGUGUCCAGUUCAUCCAGGTT against 3110035E14Rik | inactive: -1.03
GGUACAUAUUACAUUCUUCTT against Cldn12 | inactive: 1.18
GCUAACCAGUGAUCCUACATT against Olfr846 | inactive: -0.638
CCAUGAUCAAGAUUGUGCUTT against Slc29a1 | inactive: -0.707
GGAUCUUUACAUCUCUAACTT against 4733401H21Rik | inactive: 0.355
CACCGAGUAUAUCUAUAAUTT against Ear14 | inactive: -0.941
GGUCAAAGUUAUGCAAUGUTT against Rp9h | inactive: -0.432
GGAGAACUGAAAGACGUGCTT against Vgll1 | inactive: 1.23
